These are yes or no findings as the source states them, for the method shown. In cells and extracts the contact can be indirect. Binding calls can cover weak binding; strength is not graded here.
Target: Scramb1-A-V5 (Drosophila)
Assay: co-IP; lysate of salivary glands coexpressing both proteins; Dynabeads Protein G coupled to mouse anti-V5 (control: anti-β-galactosidase), 30 min at room temperature; 150 mM NaCl, 20 mM Tris-HCl pH 7.5, 0.5% Triton X-100, 1 mM DTT; western blot of eluates

B1: Flo2-RFP (protein, UniProt O61492 1-438)
chain: MGNIHTTGPNEALIVSGGCCGSTKKRTIVGGWAWAWWLVTDVQRLSLNVMTLNPMCENVETSQGVPLTVTGVAQCKIMKSSSYKQTDYHNDEADELLGTASEQFLGKSVKEIKQTILQTLEGHLRAILGTLTVEEVYKDRDQFAALVREVAAPDVGRMGIEILSFTIKDVYDDVQYLASLGKAQTAVVKRDADAGVAEANRDAGIREAECEKSAMDVKYSTDTKIEDNTRMYKLQKANFDQEINTAKAESQLAYELQAAKIRQRIRNEEIQIEVVERRKQIEIESQEVQRKDRELTGTVKLPAEAEAFRLQTLAQAKQCQTIEGARAEAERIRKIGSAEAHAIELVGKAEAERMRMKAHVYKQYGDAAIMNIVLESLPKIAAEVAAPLAKTDEIVLIGGNDNITNDVTRLVAQLPPSINALTGVDLSKVLSKIPGAKA
binding: binds

Source: paper PMC11335299
